The text below walks through data of PubChem BioAssay AID901 (National Center for Advancing Translational Sciences (NCATS), 2007).

The other results are listed elsewhere or left out. Further columns of the screen follow, without active or inactive calls. Most of these compounds were active or inconclusive in the main read-out, so they are no random draw. Potencies come from curve fits of mixed quality, noted in brackets.

This assay in a line: qHTS Assay for Identifying the Cell-Membrane Permeable IMPase Inhibitors. As to conditions: CHO-M1 cells, IP1 accumulation, HTRF TR-FRET ratio; measured here: donor channel 620 nm AC50.
For orientation: AC50 means the concentration giving half of the maximal activity seen. In the case of `CC(C)(CO)Nc1ccc([N+](=O)[O-])cc1[N+](=O)[O-]`, the AC50 is 12.6 µM [falling, single point]. The value for `COc1cccc(-c2cc3c(=O)n(-c4ccccc4)c(=S)[nH]c3s2)c1` was 20 µM [rising, partial curve]; that for `N#Cc1c(Cl)nc(SCc2ccccc2)nc1-c1ccccc1` was 15.8 µM [rising, single point]. With `CCCCOC(=O)Nc1cccc(Cl)c1C`, the AC50 was 5.01 µM [falling, single point]. Regarding `O=C1CN(C(=O)COC(=O)C2=COCCO2)c2ccccc2N1`, the AC50 is 2.51 µM [rising, full curve, poor fit]. In the case of `O=C(CSc1nc2ccccc2o1)NCC(=O)c1ccccc1`, the AC50 was 12.6 µM [rising, single point]. Consider `O=C(O)CCNc1ccc2c(c1)OCCO2`, for which the AC50 is 7.94 µM [falling, partial curve].

Regarding `COc1cc(/C=C(\C#N)c2nc3ccccc3[nH]2)ccc1OCc1ccccc1F`, the AC50 was 35.5 µM [rising, single point].

Turning to `CCOc1ncccc1C(=O)OCc1nnc(-c2ccccc2)o1`, the AC50 is 0.01 µM [rising, full curve, poor fit].

Turning to `CN(C(=O)COc1ccccc1)c1nnc(-c2cccnc2)s1`, the AC50 was 6.31 µM [falling, single point]. In the case of `COc1ccc(-c2n[nH]c(C)c2-c2cnn(-c3ccccc3)c2)c(O)c1`, the AC50 was 31.6 µM [falling, single point]. Turning to `Cc1cc(C)c2c(=O)[nH]c(SCC(=O)NCCc3ccccc3)nc2n1`, the AC50 is 35.5 µM [rising, single point]. For `Cc1cc(C)[n+](-c2ccc(F)cc2)c2[nH]c(=O)[nH]c(=O)c12`, the AC50 is 10 µM [rising, partial curve].

For `CCN1CCc2nc(NC(=O)c3ccccc3)sc2C1`, the AC50 was 4.47 µM [rising, single point].

Take `NNC(=O)C1CC1c1ccccc1` (stereo not drawn): the AC50 was 0.631 µM [falling, partial curve, poor fit]. For the compound `Cc1cc(C)c(NC(=O)CN2C(=O)NC3(CCOc4ccccc43)C2=O)c(C)c1` (stereo not drawn), the AC50 is 5.01 µM [falling, single point]. `CC1CN(S(=O)(=O)c2ccccc2)CC(C)O1` (stereo not drawn): the AC50 was 0.708 µM [falling, full curve, poor fit]. Regarding `Cc1cc2c(cc1C)CSC(c1ccccc1OC(=O)C(C)C)SC2`, the AC50 is 10 µM [falling, partial curve]. On to `CCOC(=O)N1CCN(C(=O)c2cc3c(s2)-c2ccccc2OC3)CC1`, for which the AC50 is 0.0178 µM [rising, full curve, poor fit]. Turning to `O=C(NCc1ccccc1)c1cccc(COc2cccc(Cl)c2)c1`, the AC50 was 6.31 µM [rising, single point].

On to `C/C(=N/NC(N)=S)c1ccccc1[N+](=O)[O-]`, for which the AC50 was 0.398 µM [rising, full curve, poor fit]. On to `C/[N+]([O-])=C1\Cc2ccccc2C1=O`, for which the concentration at half-maximal activity (AC50) is 15.8 µM [falling, partial curve]. As for `c1ccc(Oc2cccc(CN3CCOCC3)c2)cc1`, the AC50 is 12.6 µM [rising, partial curve, poor fit].

On to `COCC(=O)NCCc1nc(-c2ccccc2)cs1`, for which the AC50 was 0.398 µM [falling, partial curve, poor fit]. The value for `CCC1Oc2ccc(C)cc2N(CC(=O)N(Cc2ccncc2)Cc2ccco2)C1=O` (stereo not drawn) was 25.1 µM [falling, single point]; that for `Nc1cc(=O)[nH]c(SCCNS(=O)(=O)c2ccccc2)n1` was 3.16 µM [falling, single point]; that for `CC(C)CC(c1nnnn1Cc1ccco1)N1CCN(c2cccc(Cl)c2)CC1` (stereo not drawn) was 0.501 µM [rising, full curve, poor fit]. Next, `CC(O)/C=C/c1cccc[n+]1C` (stereo not drawn): 5.01 µM [falling, single point]; `Fc1ccc(NC(=S)NN=C2CCCCCC2)cc1`: 0.02 µM [rising, full curve, poor fit]. For `O=C(CCC(=O)c1ccc(F)cc1)OC1CCOC1=O` (stereo not drawn), the AC50 was 31.6 µM [falling, single point]. `COc1cccc(NC(=O)Nc2ccc3c(c2)nnn3C)c1`: the AC50 is 0.794 µM [falling, full curve]. The value for `O=C(Nn1c(O)c(C=C2N=c3ccccc3=N2)sc1=S)c1cccc(Cl)c1` was 31.6 µM [falling, single point]; that for `CN(C)c1oc(-c2ccccc2Cl)nc1C#N` was 3.55 µM [falling, full curve, poor fit]; that for `Cc1ccnc(NS(=O)(=O)c2ccc(NC(=O)C(C)(C)Oc3ccc(Cl)cc3)cc2)n1` was 0.0891 µM [falling, full curve, poor fit]. `O=S(=O)(c1ccc(Br)cc1)N1CCN(c2cc(-c3ccccc3)nc3ncnn23)CC1`: the AC50 was 3.98 µM [falling, partial curve, poor fit]. As to `COc1ccccc1NC(=O)CCN1CC(C)OC(C)C1` (stereo not drawn), the AC50 was 5.01 µM [falling, single point]. Next, `COc1ccc2sc3ccccc3c(=O)c2c1OC`: 31.6 µM [rising, single point]. Turning to `Cc1oc2c(cc(NS(=O)(=O)c3ccc(Cl)cc3)c3ccccc32)c1C(=O)OCc1ccccc1`, the AC50 is 10 µM [rising, partial curve]. The value for `Cc1[nH]n2c(=O)c3c(nc2c1-c1ccc(Cl)cc1)CCC3` was 3.98 µM [rising, single point]; that for `CCOc1ccc(-c2nc3ccccc3c(=O)o2)cc1` was 25.1 µM [rising, partial curve]. Regarding `CCCc1cc(C(=O)Nc2ccc(C(C)=O)cc2)no1`, the AC50 was 31.6 µM [rising, single point]. Next, `COc1ccc(/C=N/NC(=O)CSc2n[nH]c(=O)[nH]c2=O)cc1`: 0.00355 µM [falling, full curve, poor fit]; `CC(C(=O)N1CCCc2ccccc21)N1C(=O)c2ccccc2C1=O` (stereo not drawn): 1 µM [rising, full curve, poor fit]; `Cc1cc(C)c2nc(C(F)(F)F)nc(N3CC(C)OC(C)C3)c2c1` (stereo not drawn): 3.16 µM [falling, full curve, poor fit]. Turning to `CCOC(=O)COc1ccc2nsnc2c1Cl`, the AC50 is 12.6 µM [rising, partial curve]. Next, `C=CCc1cccc(/C=N/c2ncccc2O)c1O`: 12.6 µM [falling, single point]; `Cc1ccc(NC2=CC(=O)C(=O)c3ccccc32)cc1`: 15.8 µM [falling, single point]. Consider `CCCCCC(=O)Nc1c(-c2ccc(OC)cc2)c(=O)c2ccccc2n1C`, for which the AC50 was 0.794 µM [falling, full curve, poor fit]. `COCCCn1c(C(C)C)nc2oc3cc(OC)ccc3c(=O)c2c1=O`: the AC50 was 0.251 µM [falling, partial curve, poor fit]. For the compound `CC(C)Sc1oc(-c2ccco2)nc1S(=O)(=O)c1ccccc1`, the AC50 was 10 µM [falling, partial curve, poor fit]. For `CCOc1ccccc1CNC(=O)CCN1C(=O)COc2ccccc21`, the concentration at half-maximal activity (AC50) was 0.00398 µM [falling, partial curve, poor fit]. Next, `COc1cc2c(C(=O)NCc3ccc4c(c3)OCO4)cn(C)c(=O)c2cc1OC`: 25.1 µM [rising, single point]. Regarding `COc1ccc(N(C(=O)c2ccco2)C(C(=O)NC2CCCCC2)c2cccs2)cc1OC` (stereo not drawn), the AC50 is 0.2 µM [rising, single point]. For `COc1ccccc1N1CCN(C(=O)c2cnn3cccnc23)CC1`, the AC50 was 5.62 µM [rising, single point]. With `CCN1CCN(c2nc(C)nc3c2sc(=S)n3C)CC1`, the half-maximal activity concentration (AC50) was 1.12 µM [falling, full curve, poor fit]. In the case of `COc1cccc(OC)c1C(=O)Nc1ccc(-c2nc3ncccc3o2)cc1`, the AC50 is 0.00501 µM [falling, full curve, poor fit]. Next, `COc1ccc(S(=O)(=O)CCc2nnc(NC(=O)c3cccs3)s2)cc1`: 2.51 µM [falling, full curve, poor fit]. Turning to `OC(CSc1ccccc1Cl)CN1CCN(c2ccccc2F)CC1` (stereo not drawn), the AC50 was 14.1 µM [falling, single point]. With `CCC(=O)Nc1ccc(N2CCN(Cc3ccccc3)CC2)cc1`, the AC50 is 1.58 µM [falling, partial curve]. Take `CCC(Sc1nc2ccccc2c(=O)[nH]1)C(=O)O` (stereo not drawn): the AC50 was 0.316 µM [falling, full curve, poor fit]. As to `COc1ccccc1CN(Cc1ccco1)S(=O)(=O)c1ccc(-n2cnnn2)c(OC)c1`, the AC50 is 2.82 µM [falling, full curve]. On to `COC(=O)c1cc(NC(=O)CSc2nnc(CN3CCOCC3)n2C)ccc1Cl`, for which the AC50 is 0.01 µM [falling, full curve, poor fit]. In the case of `CCOC(=O)c1cc(OC(=O)c2ccccc2F)n(-c2ccccc2)n1`, the AC50 is 0.00447 µM [falling, full curve, poor fit]. The value for `COc1ccc(OCC(=O)Nc2ccc(-c3nc4cc(Cl)ccc4o3)cc2)cc1` was 28.2 µM [rising, single point]. Next, `COc1cc(/C=N/N=C(/N)c2nonc2N)cc(Br)c1OCc1cccc(C)c1`: 0.1 µM [falling, full curve, poor fit]. The value for `Cc1cccc2c(-c3ccccc3)cc(=O)[nH]c12` was 0.126 µM [falling, full curve, poor fit]. Turning to `Cc1c(C(=O)C(=O)N2c3ccc(F)cc3CCC2C)c2ccccc2n1C` (stereo not drawn), the AC50 is 14.1 µM [rising, single point]. With `C/C(=C\C(=O)c1ccccc1)Nc1cccc(O)c1`, the AC50 is 0.0126 µM [rising, full curve, poor fit].
